Source: PubChem BioAssay AID1688 (National Center for Advancing Translational Sciences (NCATS), 2009)
Among all 220,000 compounds or so, about 2,400 (1.1%) were called active. The inconclusive results got no clear call from the source; some entries with a clear call stand among them for comparison. The call rests on the fitted dose curve; in most records, active means well fitted inhibition curve with a large enough effect; inconclusive means small, poorly fitted or top-dose-only effect, or effect the other way; inactive means no such curve, though single readings can be large or run the other way. Where the call is inconclusive, the potency comes from a doubtful curve fit.

experiment: qHTS Multiplex Assay to Identify Dual Action Probes in a Cell Model of Huntington: Aggregate Formation (GFP); settings: PC12 HttQ103-GFP aggregates, Acumen cytometry, 40 h; activity change, negative = inhibition: at 46.1 µM (top of the series) unless noted; further: nearly all actives have a fitted effect of over 60% in size
Outline: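 Steps: seed 1500 PC12 HTTQ103-GFP cells/well; add tebufenozide, 100 nM final; add compound titration; add ATPLite reagent; quantify GFP aggregates by laser scanning cytometry.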
On the % scale 0 is the no-effect control and ±100 the full control effect; potency means the concentration at half of the fitted maximal effect.

Compound | activity change, negative = inhibition | Potency
O=C(CNCC1CCCCC1)Nc1cccc(S(=O)(=O)N2CCOCC2)c1 | inactive: 25.9% | –
CC(C)(C)/C=N/NC(=O)C1CC1 | – | inconclusive: 1.26 µM [activator, single point]
Cc1[nH]c(-c2ccco2)nc1C(=O)O | inactive: -0.585% | –
O=C(NC1=NCCS1)C1CC(=O)N(c2ccc(Cl)cc2)C1 (stereo not given) | inactive: 17.5% | –
O=C(OCc1ccco1)c1ccc(S(=O)(=O)N2CCCCC2)cc1 | inactive: -1.93% | –
Cc1ccc(Cl)cc1N1CCN(C(=S)NCCc2ccccc2)CC1 | – | inconclusive: 12.6 µM [inhibitor, single point]
Cn1c(=O)n(Cc2ccccc2)c(=O)c2c1nc(NCC1CCCO1)n2Cc1ccccc1 (stereo not given) | inactive: 9.54% [at 9.22 µM] | –
O=c1cc(N2CCCCC2)c(-c2ccccc2)nn1Cc1ccc(Cl)cc1Cl | – | inconclusive: 22.4 µM [inhibitor, single point]
N#CC1=C(N)Nc2nc3ccccc3n2C1c1ccc(F)cc1 (stereo not given) | – | inconclusive: 5.62 µM [inhibitor, single point]
COc1ccc(NCc2nc3ccccc3n2CCOc2ccc(C)cc2)cc1 | – | inconclusive: 35.5 µM [inhibitor, single point]
COc1ccc(C(=O)/C=C/C(=O)N(Cc2ccc3c(c2)OCO3)C(C(=O)NC2CCCCC2)c2ccncc2)c(O)c1 (stereo not given) | – | inconclusive: 4.47 µM [activator, full curve]
Nc1ccc(SC(F)(F)F)cc1 | inactive: 21.8% | –
O=C(Nc1ccc(F)c([N+](=O)[O-])c1)C(=O)c1c(O)[nH]c2ccccc12 | inactive: 22.7% | –
O=S(=O)(O)c1ccc(N2N=C(c3ccccc3)CC2c2ccccc2)cc1 (stereo not given) | – | inconclusive: 0.891 µM [inhibitor, partial curve]
Cc1[nH]n2c(=O)c3c(nc2c1-c1cccc2ccccc12)CCC3 | – | inconclusive: 35.5 µM [inhibitor, single point]
COc1ccc(C(NC(=O)c2cccnc2)c2cc(Cl)c3cccnc3c2O)cc1OC (stereo not given) | – | active: 2.82 µM
CC(=O)c1nn(-c2ccc(Br)cc2)cc1C(=O)c1ccccc1 | – | inconclusive: 35.5 µM [inhibitor, single point]
O=C(CSc1nnc(Cc2ccccc2)o1)NCc1ccc2c(c1)OCO2 | inactive: -13.8% | –
Cc1ccc(NC(=O)N(CCCN2CCOCC2)Cc2cc3cc4c(cc3[nH]c2=O)OCO4)cc1 | – | inconclusive: 20 µM [activator, partial curve, poor fit]
COc1ccc(Cn2c3nc4ccccc4nc3c3c(=O)n(Cc4ccco4)c(C)nc32)cc1 | – | inconclusive: 31.6 µM [activator, single point]
COc1cc2[nH]c(=S)n(C3CCCC3)c(=O)c2cc1OC | inactive: -7.21% | –
Clc1ccc(OCc2nnc(SCc3nnc(-c4ccccc4)o3)o2)c(Cl)c1 | inactive: 16.2% | –
Cc1cccc(NC(=S)NNC(=O)c2ccccc2OC(F)F)c1 | – | inconclusive: 35.5 µM [inhibitor, single point]

Some of the entries so far, in markdown:

| Compound | activity change, negative = inhibition | Potency |
| --- | --- | --- |
| O=C(OCc1ccco1)c1ccc(S(=O)(=O)N2CCCCC2)cc1 | inactive: -1.93% | – |
| Cc1ccc(Cl)cc1N1CCN(C(=S)NCCc2ccccc2)CC1 | – | inconclusive: 12.6 µM [inhibitor, single point] |
| Cn1c(=O)n(Cc2ccccc2)c(=O)c2c1nc(NCC1CCCO1)n2Cc1ccccc1 (stereo not given) | inactive: 9.54% [at 9.22 µM] | – |

Next part

Compound | activity change, negative = inhibition | Potency
Nc1ccc(Br)c[n+]1Cc1cccc2cccnc12 | – | inconclusive: 0.794 µM [activator, single point]
O=C(COc1cccc2ccccc12)N1c2ccccc2CCc2ccccc21 | – | inconclusive: 28.2 µM [inhibitor, single point]
CS(=O)(=O)N1CCN(c2ccc(NC(=O)c3cccnc3Cl)cc2)CC1 | – | inconclusive: 12.6 µM [activator, partial curve]
COCCOc1ccc(C(F)(F)F)cc1NC(=O)c1ccccc1 | – | inconclusive: 22.4 µM [activator, single point]
COc1ccccc1Nc1nc2c(s1)CCC2 | – | inconclusive: 35.5 µM [activator, single point]
Cc1ccc(C(=O)NCC(=O)OC(C)C(=O)Nc2ccc(N(C)C)cc2)s1 (stereo not given) | inactive: -3% | –
Cc1ccccc1NC(=O)CSc1nnc(-c2ccco2)c(-c2ccco2)n1 | – | inconclusive: 35.5 µM [inhibitor, single point]
Cc1cccc(N(C(=O)c2ccc(CN3CCOCC3)o2)C(C(=O)NC(C)(C)C)c2ccc(F)cc2)c1 (stereo not given) | – | inconclusive: 8.91 µM [activator, partial curve]
COc1cc(S(=O)(=O)NC2CCCCC2)c(C)cc1C | – | inconclusive: 11.2 µM [inhibitor, partial curve, poor fit]
CN(C)c1ccc(P(=O)(OCc2ccccc2)C(O)c2ccncc2)cc1 (stereo not given) | inactive: 12.6% | –
O=C(Nc1ccc(F)c([N+](=O)[O-])c1)c1cccs1 | – | inconclusive: 12.6 µM [inhibitor, single point]
COc1ccc(C(=O)C[n+]2ccc3c(c2)nc(-c2ccc(OC)cc2OC)n3C)cc1 | – | inconclusive: 11.2 µM [inhibitor, partial curve, poor fit]
Cc1nc2ccccc2nc1N/N=C/c1ccc(O)cc1 | inactive: 9.75% [at 9.22 µM] | –
Cc1sc2ncn(CCn3cnc4sc(C)c(C)c4c3=O)c(=O)c2c1C | – | active: 0.447 µM
Oc1c(C(Nc2ccccn2)c2cccnc2)cc(Cl)c2cccnc12 (stereo not given) | – | active: 7.08 µM
COc1ccc(-c2cc(=O)c3ccccc3n2C)cc1 | inactive: -30.1% | –
COc1cc(NC(=S)NCCC(c2ccccc2)c2ccccc2)cc(OC)c1 | – | inconclusive: 35.5 µM [inhibitor, single point]
O=C(c1cccc(F)c1)N1CCN(c2cc(N3CCCCC3)c(F)cc2[N+](=O)[O-])CC1 | – | inconclusive: 14.1 µM [inhibitor, single point]
O=C(Cn1c(-c2ccccc2)c[n+]2ccsc12)c1ccccc1 | – | inconclusive: 10 µM [inhibitor, single point]
C/C(=N\NC(=O)c1ccc([N+](=O)[O-])cc1)c1cc2ccccc2oc1=O | – | inconclusive: 35.5 µM [inhibitor, single point]
COC(=O)[C@@H]1CCCN1C(=O)CCc1nnc(CCc2c[nH]c3ccccc23)o1 | inactive: -21.5% [at 9.22 µM] | –
O=C(O)C1CC=CCC1C(=O)Nc1ccc(N2CCN(Cc3ccccc3)CC2)cc1 (stereo not given) | – | inconclusive: 28.2 µM [activator, single point]
